Source: the supplement of paper PMC7666118
The other results are listed elsewhere or left out.

Protein sequences, listed by entry. Tags and fused reporters are not part of them. Lines headed by an entry give the natural chain unless they say otherwise; changes in a name come on top.
UniProt Q9NY33: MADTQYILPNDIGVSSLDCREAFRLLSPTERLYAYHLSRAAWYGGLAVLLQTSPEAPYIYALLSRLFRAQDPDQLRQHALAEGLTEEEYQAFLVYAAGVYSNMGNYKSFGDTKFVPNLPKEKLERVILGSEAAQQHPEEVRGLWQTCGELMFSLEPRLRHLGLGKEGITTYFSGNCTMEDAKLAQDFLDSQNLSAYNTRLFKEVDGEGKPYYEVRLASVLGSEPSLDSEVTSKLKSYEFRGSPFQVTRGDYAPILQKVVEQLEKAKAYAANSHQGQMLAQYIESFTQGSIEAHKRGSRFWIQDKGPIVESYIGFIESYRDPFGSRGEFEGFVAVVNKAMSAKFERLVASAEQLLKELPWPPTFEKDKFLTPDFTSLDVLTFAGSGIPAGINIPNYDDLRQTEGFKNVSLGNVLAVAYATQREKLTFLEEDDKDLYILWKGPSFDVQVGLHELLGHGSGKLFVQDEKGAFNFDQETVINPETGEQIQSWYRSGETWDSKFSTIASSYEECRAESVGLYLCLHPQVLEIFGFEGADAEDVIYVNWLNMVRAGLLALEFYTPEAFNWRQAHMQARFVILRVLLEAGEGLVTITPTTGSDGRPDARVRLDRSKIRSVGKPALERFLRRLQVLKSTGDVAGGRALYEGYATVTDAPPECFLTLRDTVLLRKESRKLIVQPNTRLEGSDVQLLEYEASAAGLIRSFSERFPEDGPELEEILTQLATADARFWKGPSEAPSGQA
UniProt P18146, whole entry, looked up: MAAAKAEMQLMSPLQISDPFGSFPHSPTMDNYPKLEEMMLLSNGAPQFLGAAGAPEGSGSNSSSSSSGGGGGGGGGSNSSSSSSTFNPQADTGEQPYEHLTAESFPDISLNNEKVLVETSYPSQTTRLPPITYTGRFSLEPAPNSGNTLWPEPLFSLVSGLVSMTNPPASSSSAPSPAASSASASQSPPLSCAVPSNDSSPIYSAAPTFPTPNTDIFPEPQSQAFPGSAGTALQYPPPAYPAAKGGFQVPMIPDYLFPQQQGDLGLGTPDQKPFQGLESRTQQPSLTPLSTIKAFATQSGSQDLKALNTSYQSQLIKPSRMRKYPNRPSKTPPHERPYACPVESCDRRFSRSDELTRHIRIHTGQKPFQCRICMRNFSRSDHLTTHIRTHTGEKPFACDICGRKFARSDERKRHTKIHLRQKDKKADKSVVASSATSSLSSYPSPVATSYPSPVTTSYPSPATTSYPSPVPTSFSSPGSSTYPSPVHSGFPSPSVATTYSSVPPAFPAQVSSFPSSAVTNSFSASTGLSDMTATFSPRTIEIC
UniProt Q7L2H7, whole entry: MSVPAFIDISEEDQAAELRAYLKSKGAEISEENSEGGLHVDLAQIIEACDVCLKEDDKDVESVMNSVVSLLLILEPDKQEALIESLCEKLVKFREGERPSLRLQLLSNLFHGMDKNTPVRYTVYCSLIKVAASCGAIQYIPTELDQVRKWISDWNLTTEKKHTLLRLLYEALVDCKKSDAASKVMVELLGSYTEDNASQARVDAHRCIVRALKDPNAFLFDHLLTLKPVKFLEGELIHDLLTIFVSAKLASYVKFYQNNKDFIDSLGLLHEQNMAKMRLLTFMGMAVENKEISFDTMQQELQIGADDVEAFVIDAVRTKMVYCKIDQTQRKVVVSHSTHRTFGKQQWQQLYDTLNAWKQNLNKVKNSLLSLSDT
UniProt P55199: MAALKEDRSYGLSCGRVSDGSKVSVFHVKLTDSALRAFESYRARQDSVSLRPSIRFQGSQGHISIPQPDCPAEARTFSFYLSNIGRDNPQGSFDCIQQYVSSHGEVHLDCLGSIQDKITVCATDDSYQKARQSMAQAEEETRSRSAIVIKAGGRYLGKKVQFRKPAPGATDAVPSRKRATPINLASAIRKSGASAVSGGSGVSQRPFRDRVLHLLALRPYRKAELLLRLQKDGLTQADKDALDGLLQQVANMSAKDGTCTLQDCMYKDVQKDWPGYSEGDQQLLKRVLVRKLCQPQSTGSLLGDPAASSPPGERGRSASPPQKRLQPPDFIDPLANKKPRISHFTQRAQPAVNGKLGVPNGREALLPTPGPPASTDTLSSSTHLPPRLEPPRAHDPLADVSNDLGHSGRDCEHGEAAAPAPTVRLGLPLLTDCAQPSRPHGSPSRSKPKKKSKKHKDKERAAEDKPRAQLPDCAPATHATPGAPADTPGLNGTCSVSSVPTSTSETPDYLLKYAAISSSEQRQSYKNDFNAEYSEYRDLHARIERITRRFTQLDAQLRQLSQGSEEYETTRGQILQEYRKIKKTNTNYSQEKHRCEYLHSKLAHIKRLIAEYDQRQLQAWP
UniProt O75461: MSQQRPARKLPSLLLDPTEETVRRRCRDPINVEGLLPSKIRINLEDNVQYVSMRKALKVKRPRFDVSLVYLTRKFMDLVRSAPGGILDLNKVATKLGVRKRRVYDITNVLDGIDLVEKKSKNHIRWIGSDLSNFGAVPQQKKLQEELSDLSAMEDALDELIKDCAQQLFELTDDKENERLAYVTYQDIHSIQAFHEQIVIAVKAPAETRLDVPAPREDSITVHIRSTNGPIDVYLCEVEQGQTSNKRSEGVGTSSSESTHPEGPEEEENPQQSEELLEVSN
UniProt Q9UKB3: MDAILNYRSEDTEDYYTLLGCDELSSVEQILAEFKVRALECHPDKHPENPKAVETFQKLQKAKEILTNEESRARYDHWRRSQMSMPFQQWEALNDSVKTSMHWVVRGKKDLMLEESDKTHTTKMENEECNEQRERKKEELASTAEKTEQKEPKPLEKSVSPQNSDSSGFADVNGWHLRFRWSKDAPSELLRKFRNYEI
UniProt Q96F86: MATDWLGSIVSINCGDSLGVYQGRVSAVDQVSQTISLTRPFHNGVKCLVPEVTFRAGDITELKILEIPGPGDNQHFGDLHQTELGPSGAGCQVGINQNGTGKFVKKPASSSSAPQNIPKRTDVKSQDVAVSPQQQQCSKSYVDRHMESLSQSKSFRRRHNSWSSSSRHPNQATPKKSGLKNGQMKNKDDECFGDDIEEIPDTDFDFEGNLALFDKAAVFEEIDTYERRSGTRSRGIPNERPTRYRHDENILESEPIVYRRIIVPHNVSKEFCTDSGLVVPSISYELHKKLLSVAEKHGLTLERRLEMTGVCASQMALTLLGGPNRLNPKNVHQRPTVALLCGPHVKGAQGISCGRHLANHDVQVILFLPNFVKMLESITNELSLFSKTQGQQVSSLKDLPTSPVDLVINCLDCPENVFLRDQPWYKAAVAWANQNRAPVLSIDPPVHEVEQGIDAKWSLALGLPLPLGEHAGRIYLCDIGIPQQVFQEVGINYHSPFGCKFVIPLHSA
UniProt Q86TI2: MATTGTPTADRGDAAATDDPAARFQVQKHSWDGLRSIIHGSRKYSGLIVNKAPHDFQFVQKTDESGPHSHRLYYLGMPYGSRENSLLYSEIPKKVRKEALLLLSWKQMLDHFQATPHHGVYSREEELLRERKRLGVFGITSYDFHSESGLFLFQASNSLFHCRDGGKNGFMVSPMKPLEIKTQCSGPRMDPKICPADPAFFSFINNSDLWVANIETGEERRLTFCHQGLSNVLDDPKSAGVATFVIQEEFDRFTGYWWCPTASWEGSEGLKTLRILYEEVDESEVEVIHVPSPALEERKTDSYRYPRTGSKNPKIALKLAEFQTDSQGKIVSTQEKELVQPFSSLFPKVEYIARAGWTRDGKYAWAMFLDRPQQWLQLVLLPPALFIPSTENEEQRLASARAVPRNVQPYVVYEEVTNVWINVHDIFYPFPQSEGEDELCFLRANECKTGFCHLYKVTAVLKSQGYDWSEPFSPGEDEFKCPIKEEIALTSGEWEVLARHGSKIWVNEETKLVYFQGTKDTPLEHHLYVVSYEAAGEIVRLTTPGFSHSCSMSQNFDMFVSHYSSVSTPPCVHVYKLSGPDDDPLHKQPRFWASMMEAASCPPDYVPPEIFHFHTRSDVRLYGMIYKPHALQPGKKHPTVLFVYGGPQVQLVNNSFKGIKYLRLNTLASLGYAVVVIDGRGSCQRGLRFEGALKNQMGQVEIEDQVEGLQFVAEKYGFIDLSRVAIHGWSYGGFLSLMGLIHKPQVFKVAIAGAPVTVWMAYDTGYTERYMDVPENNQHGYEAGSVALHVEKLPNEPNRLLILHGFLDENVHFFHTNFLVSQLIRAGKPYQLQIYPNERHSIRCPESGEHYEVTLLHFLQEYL
UniProt P50570: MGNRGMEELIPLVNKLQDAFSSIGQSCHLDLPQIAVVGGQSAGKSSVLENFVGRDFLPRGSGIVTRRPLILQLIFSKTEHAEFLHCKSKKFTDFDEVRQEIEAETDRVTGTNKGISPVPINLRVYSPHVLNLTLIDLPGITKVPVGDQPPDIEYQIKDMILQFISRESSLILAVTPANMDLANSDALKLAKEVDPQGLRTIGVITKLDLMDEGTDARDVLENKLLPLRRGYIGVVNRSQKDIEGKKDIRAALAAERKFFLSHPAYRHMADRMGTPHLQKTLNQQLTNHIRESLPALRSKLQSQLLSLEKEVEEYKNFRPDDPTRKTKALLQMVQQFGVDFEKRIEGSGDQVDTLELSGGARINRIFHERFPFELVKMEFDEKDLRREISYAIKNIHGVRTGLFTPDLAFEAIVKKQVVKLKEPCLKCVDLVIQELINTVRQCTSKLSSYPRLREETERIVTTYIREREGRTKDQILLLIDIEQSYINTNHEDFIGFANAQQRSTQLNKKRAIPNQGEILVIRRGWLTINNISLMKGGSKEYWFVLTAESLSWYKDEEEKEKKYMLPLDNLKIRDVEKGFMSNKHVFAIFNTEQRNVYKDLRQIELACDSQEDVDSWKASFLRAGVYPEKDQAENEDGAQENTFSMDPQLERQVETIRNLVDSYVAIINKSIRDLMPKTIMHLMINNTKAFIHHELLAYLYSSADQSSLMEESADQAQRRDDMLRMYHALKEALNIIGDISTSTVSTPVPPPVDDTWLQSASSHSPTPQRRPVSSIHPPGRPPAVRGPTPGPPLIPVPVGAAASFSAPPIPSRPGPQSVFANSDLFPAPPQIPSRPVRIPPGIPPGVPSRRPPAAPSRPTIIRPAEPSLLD
UniProt Q9Y2L1: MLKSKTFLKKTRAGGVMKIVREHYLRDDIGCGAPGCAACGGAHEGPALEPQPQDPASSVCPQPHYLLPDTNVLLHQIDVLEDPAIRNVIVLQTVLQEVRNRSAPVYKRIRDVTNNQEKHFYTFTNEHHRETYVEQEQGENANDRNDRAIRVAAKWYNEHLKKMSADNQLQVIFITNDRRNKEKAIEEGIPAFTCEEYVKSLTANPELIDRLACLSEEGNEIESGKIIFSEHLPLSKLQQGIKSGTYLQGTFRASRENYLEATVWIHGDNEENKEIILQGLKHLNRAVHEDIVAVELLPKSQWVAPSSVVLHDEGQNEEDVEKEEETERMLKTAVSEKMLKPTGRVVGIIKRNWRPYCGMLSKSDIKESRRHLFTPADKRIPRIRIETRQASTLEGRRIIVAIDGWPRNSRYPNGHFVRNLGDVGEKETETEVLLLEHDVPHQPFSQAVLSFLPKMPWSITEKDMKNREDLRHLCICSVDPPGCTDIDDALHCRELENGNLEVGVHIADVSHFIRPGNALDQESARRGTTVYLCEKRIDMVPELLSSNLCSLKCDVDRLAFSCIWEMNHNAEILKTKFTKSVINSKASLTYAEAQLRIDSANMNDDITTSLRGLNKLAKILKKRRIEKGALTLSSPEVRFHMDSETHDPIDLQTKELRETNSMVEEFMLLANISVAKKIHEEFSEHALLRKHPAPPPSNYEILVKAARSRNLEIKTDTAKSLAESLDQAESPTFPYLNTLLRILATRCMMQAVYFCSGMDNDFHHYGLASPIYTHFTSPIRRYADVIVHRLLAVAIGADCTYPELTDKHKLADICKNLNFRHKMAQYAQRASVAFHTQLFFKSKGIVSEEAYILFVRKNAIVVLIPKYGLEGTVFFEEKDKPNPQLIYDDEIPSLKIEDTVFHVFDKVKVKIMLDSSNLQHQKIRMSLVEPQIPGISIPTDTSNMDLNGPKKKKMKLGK
UniProt Q5F1R6: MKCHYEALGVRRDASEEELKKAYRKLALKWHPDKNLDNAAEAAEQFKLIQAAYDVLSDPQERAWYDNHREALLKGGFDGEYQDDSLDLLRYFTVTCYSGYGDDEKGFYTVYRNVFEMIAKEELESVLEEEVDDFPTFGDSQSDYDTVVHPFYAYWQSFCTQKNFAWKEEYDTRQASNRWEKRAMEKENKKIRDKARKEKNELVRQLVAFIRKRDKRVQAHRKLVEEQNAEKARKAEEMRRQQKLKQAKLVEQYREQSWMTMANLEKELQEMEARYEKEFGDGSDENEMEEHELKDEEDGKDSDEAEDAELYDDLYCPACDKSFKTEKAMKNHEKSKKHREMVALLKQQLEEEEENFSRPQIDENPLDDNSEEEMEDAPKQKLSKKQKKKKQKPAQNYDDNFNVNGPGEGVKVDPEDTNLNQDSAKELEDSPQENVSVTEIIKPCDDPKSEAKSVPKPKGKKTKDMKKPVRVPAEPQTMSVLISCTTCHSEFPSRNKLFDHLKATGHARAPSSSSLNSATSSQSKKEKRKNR

These targets were tested with COc1ccc(Cn2ccc3ccc(C(=O)NO)cc32)cc1 (assay: dose-dependent thermal stabilisation call (2D-TPP, DLPTP, 10% FDR) (binary (1 = stabilised)); higher = stabilised by the compound). Settings: system: HL-60 intact cells; concentration range 0.04-10 µM.

Target | dose-dependent thermal stabilisation call
DPP8 (UniProt Q6V1X1) | inactive: 0
EIF2B2 (UniProt P49770) | inactive: 0
DPP3 (UniProt Q9NY33) | inactive: 0
DIS3L (UniProt Q8TF46) | inactive: 0
EPHX1 (UniProt P07099) | active: 1
EGR1 (UniProt P18146) | inactive: 0
EIF1AP1 | inactive: 0
EIF3M (UniProt Q7L2H7) | inactive: 0
ELL (UniProt P55199) | inactive: 0
E2F6 (UniProt O75461) | inactive: 0
DIAPH3 (UniProt Q9NSV4) | inactive: 0
DNAJC12 (UniProt Q9UKB3) | inactive: 0
EPS15L1 (UniProt Q9UBC2) | inactive: 0
EDC3 (UniProt Q96F86) | inactive: 0
DPP9 (UniProt Q86TI2) | inactive: 0
EIF1AD (UniProt Q8N9N8) | inactive: 0
EIF4A2 (UniProt Q14240) | inactive: 0
DTWD2 (UniProt Q8NBA8) | inactive: 0
DOCK11 (UniProt Q5JSL3) | inactive: 0
E2F3 (UniProt O00716) | inactive: 0
EIF5 (UniProt P55010) | inactive: 0
EPS15 (UniProt P42566) | inactive: 0
ELAC1 (UniProt Q9H777) | inactive: 0
DIMT1L (UniProt Q9UNQ2) | inactive: 0
DNM2 (UniProt P50570) | inactive: 0
DIS3 (UniProt Q9Y2L1) | inactive: 0
EEF2K (UniProt O00418) | inactive: 0
DNAJC21 (UniProt Q5F1R6) | inactive: 0

Some of the entries so far, in markdown:

| Target | dose-dependent thermal stabilisation call |
| --- | --- |
| DIS3L (UniProt Q8TF46) | inactive: 0 |
| EPHX1 (UniProt P07099) | active: 1 |
